# Results: US7220775B2, “Compound useful for the treatment of neuropathic pain” (H. Lundbeck A/S, priority 2002, dated 2007)
# At least one structure is not confirmed: it was looked up by name or label, or the drawing left a doubt.
# Test system: NE transporter (rNE Uptk)
# Assay: Binding at native NE transporter
# Parameters: species or system rat
# Conditions: Table 8
# Description: The binding properties of the compounds of the present invention were evaluated at one or more cloned receptors or native, tissue-derived transporters, using protocols described below.
# The methods to determine binding affinity at native transporters are described in the following publications: 5HT transporter and NE transporter (Owens et al., 1997), and DA transporter (Javitch et al, 1984).
smiles,measurement,value
CN(C)c1cc(Nc2ccc(Cl)c(Cl)c2)nc(Nc2ccccc2)n1 [Example 60],selectivity ratio rNE Uptk (Ki rNE Uptk / Ki hGAL3),>100
